Reference: patent publication US20180194822A1, “DISRUPTION OF THE INTERACTION BETWEEN AMYLOID BETA PEPTIDE AND DIETARY LIPIDS” (THE TRUSTEES OF COLUMBIA UNIVERSITY IN THE CITY OF NEW YORK, priority 2015, published 2018)
Structures were worked out from names or drawings and are uncertain.

By UniProt entry, the sequences of proteins in these tests, tags left out. Residues count along the entry.
UniProt P05067, 672-713 limits assumed: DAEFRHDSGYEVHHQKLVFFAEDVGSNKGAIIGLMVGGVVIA

Columns and labels:
[1] = biological target: Aβ:ApoE:lipid binding complex (Homo sapiens, UniProt P05067); assay: ApoE binding assay: fluorescent Aβ42 on ApoE-coated plates in presence of lipid; conditions: increasing lipid concentration, background without ApoE subtracted
[2] = biological target: Aβ42 peptide fluorescently tagged with FAM (Homo sapiens, UniProt P05067); assay: Lipid binding assay: Aβ42-FAM on lipid-coated maleic anhydride plates; conditions: for di18:0: concentrations 10,000 pmol/well and below

With `CC/C=C\C/C=C\C/C=C\C/C=C\C/C=C\C/C=C\CCC(=O)O[C@H](COC(=O)CCCCCCCCCCCCCCCCC)COP(=O)(O)OCCN` the “Aβ-Hilyte binding to ApoE in presence of lipid” value [1] was “bound ApoE” and the “binding of Aβ42-FAM to plate-bound lipid” value [2] was “saturable one-site binding”.
